The source of these data is PubChem BioAssay AID1458 (National Center for Advancing Translational Sciences (NCATS), 2008).

“And” between values parts separate entries of the source, which are not always exact repeats. Equal entries are not always repeated. Hit rate of the full screen: of about 210,000 compounds, about 5,900 (2.8%) were called active. Roughly 5% stayed inconclusive and do not appear here. The call rests on the fitted dose curve; in most records, active means well fitted activation curve with a large enough effect; inconclusive means small, poorly fitted or top-dose-only effect; inactive means no such curve, though single readings can be large or run the other way. The list shows a part of the results, in another mix than the full data. The source gives no active or inactive call for entries shown without one.
Potency means the concentration at half of the fitted maximal effect.

The assay is described as follows: qHTS Assay for Enhancers of SMN2 Splice Variant Expression. Further: nearly all actives have a fitted effect of over 55% in size. On activity change, positive = activation: % of control where 0% means no effect. The settings on record: HEK293 SMN2-luciferase splicing reporter, luminescence, 30-36 h; activity change, positive = activation: at 46.1 µM (top of the series) unless noted. The method, boiled down: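 HEK293 cells carry an SMN2 minigene-luciferase reporter in which exon 7 inclusion puts luciferase in frame. Cells were seeded at 2000 cells/well, attached for 10-12 hours, then exposed to compounds for 30-36 hours at 37C before ONE-Glo luminescence.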
(In general: Quantitative high-throughput screening tests each substance at several concentrations.)
Turning to `CCOC(=O)/C=C/C(=O)Nc1cccc([N+](=O)[O-])c1`, the activity change, positive = activation is -78.2%.

`CCC1Oc2ccccc2N(CC(=O)Nc2ccc(OC)cc2OC)C1=O` (stereo unspecified): the activity change, positive = activation came to 19.9%.

Regarding `O=C(OCn1nnc2ccccc2c1=O)c1ccc2ccccc2n1`, the activity change, positive = activation stood at 33.4%. In the case of `CCOC(=O)N1CCN(S(=O)(=O)c2ccc(C(=O)NNc3nc4cc(C)cc(C)c4s3)cc2)CC1`, the activity change, positive = activation was -86.9%. Same read-out and setting: as for `CC(C)(C)c1ccc(/C=N/NC(=O)Cc2c[nH]c3ccccc23)cc1`, the figure is 33.3%.

With `Cc1cccc(NC(=O)CSc2nnc(CNC(=O)c3cccc(C)c3)n2-c2ccccc2)c1`, the “activity change, positive = activation” value was inactive: -32.5%. Consider `CCn1cc(C2=NOC(C(=O)Nc3cccc(C(C)=O)c3)C2)c(C)n1` (stereo unspecified), for which the activity change, positive = activation was -41.4%. On the same count and under the same terms, as for `CCCc1cc(=O)n2[nH]c(SCc3ccccc3)nc2n1`, the figure is 32.3%; as for `O=C(Nc1nccs1)c1ccc(S(=O)(=O)NCC2CCCCC2)cc1`, inactive: -45.9%. `COc1ccc(C(=O)/C(=C\c2ccco2)N2C=CC=CC2=C(C#N)C#N)cc1`: the “activity change, positive = activation” value was inactive: -66.7%. Still for that read-out and setting: as for `CN(CCCC(=O)Nc1ccncc1)S(=O)(=O)c1ccc(Cl)cc1`, the figure is inactive: -34.6%; as for `COc1ccc(CCNC(=O)Cc2ccc(OCc3ccccc3)c(OC)c2[N+](=O)[O-])cc1OCc1ccccc1`, inactive: -34.4%; as for `CC(=O)Nc1ccc(S(=O)(=O)N2CCN(c3nc(NC4CCCC4)c4ccccc4n3)CC2)cc1`, -73%. Same read-out and setting: for `O=C(/C=C/c1ccc(Cl)cc1Cl)Nc1ccc(CN2CCOCC2)cc1` the value was inactive: -76.6%. Same read-out and setting: as for `Cc1ccc(C(=O)Nc2cc3ccccc3oc2=O)cc1`, the figure is -50.1%; as for `CCn1c(SCC(=O)N2CCN(c3ccccc3)CC2)nnc1-c1cc2cc(Cl)ccc2o1`, -87.6%. As to `COc1ccccc1NS(=O)(=O)c1ccc(NC(=O)c2ccncc2)cc1`, the “activity change, positive = activation” value was inactive: -43.4%.

For the compound `CCCCNC(=O)/C(C#N)=C/c1cccnc1`, the Potency is active: 5.01 µM. As for `N#Cc1c(N)nc(SCc2ccccn2)c(C#N)c1-c1cccs1`, the “activity change, positive = activation” value was inactive: -47.5%.

Regarding `CC(C)(C)NC(=O)CSc1nc2ccc(Nc3nc(N4CCOCC4)nc(N4CCOCC4)n3)cc2s1`, the “activity change, positive = activation” value was inactive: -48.5%.

Turning to `COc1ccc(Cc2nc(-c3ccc(-n4cccc4)cc3)no2)cc1`, the “activity change, positive = activation” value was inactive: -33.6%. On to `O=C(/C=C/c1cccs1)Nc1cccc(NC(=O)/C=C/c2cccs2)n1`, for which the Potency was active: 7.08 µM. For the compound `CC1CN(C2CCN(S(=O)(=O)Cc3ccccc3)CC2)CC(C)O1` (stereo unspecified), the activity change, positive = activation turned out to be 50.4%. Same read-out and setting: for `C=CCOC(=O)Nc1ccc(Cl)cc1NC(=O)OCC=C` the value was 14.7%; for `CCOc1ccccc1N1CCN(C(=O)Nc2cccc(Cl)c2)CC1`, 25.9%. Regarding `O=c1[nH]c(=O)n([C@H]2C[C@H](O)[C@@H](CO)O2)cc1Br`, the Potency is active: 14.1 µM and active: 10 µM. With `CC/C(=N\NC(=O)c1ccoc1C)c1ccc(C)o1`, the activity change, positive = activation came out at 30.1%.

With `Cn1c(=O)c2c(ncn2CC(=O)N2CCN(c3ccccc3)CC2)n(C)c1=O`, the activity change, positive = activation was 44%. As to `CC(C)Sc1nnc(NC(=O)c2ccco2)s1`, the activity change, positive = activation was 202%. The same measure, in the same setting: as for `O=C(Nc1cccc2nsnc12)C1CC(=O)N(c2ccccc2)C1` (stereo unspecified), the figure is 59.3%; as for `O=c1c2ccc([N+](=O)[O-])c3cccc(c32)c2nc3ccccc3n12`, -87.8%. For `O=C(NCc1cccs1)c1ccc(CSc2nc3ccncc3n2Cc2ccccc2F)cc1`, the activity change, positive = activation turned out to be 38.7%.

As for `N=c1c(S(=O)(=O)c2ccccc2)cc2c(=O)n3ccccc3nc2n1CC1CCCO1` (stereo unspecified), the activity change, positive = activation was found to be 46.6%. `O=[N+]([O-])c1cccc(-c2ccc(C(=S)N3CCOCC3)o2)c1`: the Potency was active: 11.2 µM. The same measure, in the same setting: for `O=c1oc(Nc2cccc(Cl)c2)nc2ccccc12` the value was active: 11.2 µM.

With `Fc1ccc(N=C2NN=C(c3cc(F)ccc3F)CS2)cc1`, the Potency was active: 22.4 µM. `Cc1oc2ccccc2c1-c1cn2c(n1)SCC2`: the activity change, positive = activation was 34%. Same read-out and setting: for `CCn1c(CNC(=O)Cc2ccc(OC)cc2)nnc1SCC(=O)Nc1nccs1` the value was 13.3%; for `CSc1nnc(-c2ccc(S(=O)(=O)N3CCCC3)cc2)n1C`, 57.6%. On to `CCOC(=O)C(C)Oc1ccc(=O)n(-c2ccccc2)n1` (stereo unspecified), for which the activity change, positive = activation was determined as 27.1%. `Cc1cc(/C=C2\Cc3ccccc3C2=O)c(C)n1-c1ccccc1`: the Potency is active: 4.47 µM. `O=C(CSc1nc2ccccc2c(=O)n1-c1ccc(F)cc1F)Nc1ccc2c(c1)CCC2`: the activity change, positive = activation was -28.6%. Same read-out and setting: for `Cc1ccc(NS(=O)(=O)c2cc(NC(=O)c3ccc4c(c3)NC(=O)CS4)ccc2C)c(C)c1` the value was inactive: -42%; for `COc1ccccc1N1CCN(C(c2cccs2)C(C)NC(=O)c2cccs2)CC1` (stereo unspecified), inactive: -48.1%. Still for that read-out and setting: as for `COc1ccc(N(C)C(=O)CCS(=O)(=O)c2cccc3nonc23)c(OC)c1`, the figure is 49.2%. Same read-out and setting: as for `CCCn1c(N)c(Sc2ccc(Cl)cc2)c(=O)n(CCC)c1=O`, the figure is 40.7%; as for `CCN1CCN(c2ccc(NC(=O)Cc3ccccc3)cc2)CC1`, 64.8%. As to `CCOc1ccc(-n2c(-c3ccccc3)c[n+]3c2CCC3)cc1`, the activity change, positive = activation was -75.8%.

As for `COCC(C)n1c(C)cc(C(=O)CSc2ncccn2)c1C` (stereo unspecified), the Potency was active: 11.2 µM. On to `CCOC(=O)c1cnc2ccc(OC)cc2c1Nc1ccc(OCc2ccccc2Cl)cc1`, for which the “activity change, positive = activation” value was inactive: -33.8%. Regarding `COc1ccc(CC(=O)Nc2nc(-c3cc(OC)ccc3OC)cs2)cc1`, the “activity change, positive = activation” value was inactive: -38.6%. In the case of `CC1=CC2=C(OC1N(C)C)c1cccc3cccc(c13)C2=O` (stereo unspecified), the activity change, positive = activation was determined as 50.2%.

In the case of `O=C(CSc1ccc(Cl)cc1Cl)N1CCC(c2nc3ccccc3s2)CC1`, the activity change, positive = activation is -34.9%.

As for `CC(C)Nc1nc(Cl)nc(NN(C)c2nc(N(C)C)nc(N(C)C)n2)n1`, the activity change, positive = activation is -35.3%. On the same count and under the same terms, as for `COC(=O)C1=C(C)N(C)C(C)=C(C(=O)OC)C1c1ccncc1`, the figure is 69.4%; as for `Cc1ccc(-c2csc(=S)n2CC(=O)OCC(=O)NCc2ccco2)cc1`, 33.1%. Same read-out and setting: as for `CCOC(=O)CSC1=C(C#N)C(c2ccc(C)s2)CC(=O)N1` (stereo unspecified), the figure is inactive: -40.1%; as for `O=C(c1ccco1)N1CCN(C(=O)c2cnn3c(C(F)(F)F)cc(-c4cccs4)nc23)CC1`, 33.6%. Regarding `CCCCOC(=O)Nc1ccc(N2CCCCC2)cc1`, the Potency was active: 11.2 µM. Consider `COCCn1nnnc1C(c1cc2cccc(C)c2[nH]c1=O)N1CCN(c2ccccc2F)CC1` (stereo unspecified), for which the activity change, positive = activation worked out at 23.7%.

With `OC[C@H]1O[C@@H](n2cnc3c(Nc4ccccc4)ncnc32)[C@H](O)[C@@H]1O`, the activity change, positive = activation was 46.8%. On the same count and under the same terms, for `COc1ccc(C(=O)Nc2ccc(C)cn2)c(OC)c1` the value was -84.3%; for `Cc1c(NC(=O)CSC2=C(C#N)C(c3ccccc3F)CC(=O)N2)c(=O)n(-c2ccccc2)n1C` (stereo unspecified), 35.2%. In the case of `Cc1ccc(S(=O)(=O)N2CCCC2C(=O)n2nc(C)cc2C)cc1` (stereo unspecified), the activity change, positive = activation was 112%.

On to `O=C(CSc1nnc(-c2ccco2)o1)NC(=O)Cc1ccccc1`, for which the activity change, positive = activation stood at 45.8%. For the compound `CC(C)COc1ccc(C(=O)Nc2ccccc2[N+](=O)[O-])cc1`, the Potency was active: 15.8 µM.
